Measurements reported in PubChem BioAssay AID1053208 (Peter MacCallum Cancer Centre, 2014).
Here is a random part of about 17,000 reagents tested. In the full data, 788 (4.7%) are marked active. 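Calls rest on z-score classes alone; an extra cut-off of viability at most 70% of control was not applied to them.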 Not all columns of the deposit are shown. No sequences are given here.

Test: 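Genes whose silencing cuts survival of bone tumour cells only with doxorubicin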 (primary screen)
Cells: mouse osteosarcoma cells, early-passage culture from an engineered mouse model of fibroblastic bone tumour
Knock-down reagent: siRNA pool against mouse genes, 40 nM
Duration: about 120 h (48 h before drug, then 72 h with drug)
Conditions: doxorubicin 100 nM for 72 h, roughly 30-40% inhibitory dose
Measurement: 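Viability read as ATP luminescence after 72 h of 100 nM doxorubicin or none, duplicate wells averaged, scaled to non-targeting siRNA, then expressed as robust z-scores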
Direction: viability z-score with doxorubicin: higher = more viable cells under doxorubicin; viability z-score without drug: higher = more viable cells with knock-down alone
Call rule: 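a pool counts as active when its viability z-score with doxorubicin is -2 or below and its z-score without drug lies between -2 and 2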

Slc22a6 [SID152340398] showed combined z-score class no change with or without drug; viability z-score with doxorubicin -0.9; viability z-score without drug -0.34; inactive.
Depletion of Atp6v1d [SID152295399] gave: combined z-score class no change with or without drug; viability z-score with doxorubicin -1.12; viability z-score without drug 0.17; inactive.
Against Dctn3 [SID152294019], the entry reads combined z-score class no change with or without drug; viability z-score with doxorubicin 1.24; viability z-score without drug 0.17; inactive.
For St7 [SID152319496], the entry reads combined z-score class no change with or without drug; viability z-score with doxorubicin 0.45; viability z-score without drug -1.52; inactive.
Against Pcdhga3 [SID152298487], the entry reads combined z-score class no change with or without drug; viability z-score with doxorubicin -0.67; viability z-score without drug -0.84; inactive.
Knock-down of Slc7a6 [SID152303641] came out at: combined z-score class no change with or without drug; viability z-score with doxorubicin 0; viability z-score without drug 1.52; inactive.
For Tfec [SID152324235] the deposit lists combined z-score class no change with or without drug; viability z-score with doxorubicin 0.22; viability z-score without drug 0.34; inactive.
With knock-down of Ints10 [SID152294002], the screen gave combined z-score class no change with or without drug; viability z-score with doxorubicin 1.01; viability z-score without drug 0.51; inactive.
For Sigmar1 [SID152295102], the values are combined z-score class no change with or without drug; viability z-score with doxorubicin 0.45; viability z-score without drug 1.85; inactive.
With knock-down of Tomm22 [SID152316446], the screen gave combined z-score class low cell count without drug only; viability z-score with doxorubicin -1.57; viability z-score without drug -3.2; inactive.
Speer4f1 [SID152284527] showed combined z-score class low cell count with doxorubicin only; viability z-score with doxorubicin -2.02; viability z-score without drug -0.67; active.
For Cd200r2 [SID152336286], the entry reads combined z-score class no change with or without drug; viability z-score with doxorubicin 0.45; viability z-score without drug 0.51; inactive.
Depletion of Rbms1 [SID152269807] resulted in: combined z-score class no change with or without drug; viability z-score with doxorubicin -1.12; viability z-score without drug 0; inactive.
Knock-down of Pah [SID152319829] resulted in: combined z-score class no change with or without drug; viability z-score with doxorubicin -0.79; viability z-score without drug -0.17; inactive.
Silencing of Nme3 [SID152325072] gave: combined z-score class no change with or without drug; viability z-score with doxorubicin -0.11; viability z-score without drug 0.51; inactive.
After knock-down of Sgms1 [SID152285840], the record shows combined z-score class low cell count without drug only; viability z-score with doxorubicin -1.57; viability z-score without drug -2.02; inactive.
Against Casd1 [SID152276205] the deposit lists combined z-score class no change with or without drug; viability z-score with doxorubicin -0.45; viability z-score without drug -0.51; inactive.
With knock-down of Or6c35 [SID152271981] the results were combined z-score class no change with or without drug; viability z-score with doxorubicin -0.45; viability z-score without drug -0.51; inactive.
Silencing of Ntng1 [SID152267245] came out at: combined z-score class high cell count with doxorubicin only; viability z-score with doxorubicin 3.15; viability z-score without drug 0.84; inactive.
Knock-down of Bad [SID152297369] resulted in: combined z-score class high cell count with doxorubicin only; viability z-score with doxorubicin 2.02; viability z-score without drug 1.85; inactive.
Silencing of 2300002M23Rik [SID152338748] gave: combined z-score class no change with or without drug; viability z-score with doxorubicin -0.22; viability z-score without drug 1.69; inactive.
For Qpctl [SID152278762] the deposit lists combined z-score class high cell count with doxorubicin only; viability z-score with doxorubicin 2.25; viability z-score without drug 1.52; inactive.
Knock-down of Ttbk2 [SID152269945] gave: combined z-score class no change with or without drug; viability z-score with doxorubicin -0.22; viability z-score without drug 1.52; inactive.
C1qb [SID152288139] gave combined z-score class no change with or without drug; viability z-score with doxorubicin 0; viability z-score without drug -0.84; inactive.
With knock-down of Apobec1 [SID152308051], the record shows combined z-score class high cell count with doxorubicin only; viability z-score with doxorubicin 2.02; viability z-score without drug -0.51; inactive.
Silencing of Zc3h8 [SID152264618] came out at: combined z-score class low cell count with doxorubicin only; viability z-score with doxorubicin -2.25; viability z-score without drug 0.34; active.
With knock-down of Or2ad1 [SID152290759] the results were combined z-score class no change with or without drug; viability z-score with doxorubicin -1.12; viability z-score without drug -1.85; inactive.
Against Slc38a7 [SID152326844], the entry reads combined z-score class no change with or without drug; viability z-score with doxorubicin 0; viability z-score without drug -0.84; inactive.
For Map2k7 [SID152328480], the entry reads combined z-score class no change with or without drug; viability z-score with doxorubicin 0.67; viability z-score without drug 0.17; inactive.
Jchain [SID152342060] gave combined z-score class no change with or without drug; viability z-score with doxorubicin 0.22; viability z-score without drug 0; inactive.
Arrb2 [SID152295684] showed combined z-score class no change with or without drug; viability z-score with doxorubicin -0.67; viability z-score without drug 0.67; inactive.
Irf2 [SID152312110] gave combined z-score class no change with or without drug; viability z-score with doxorubicin 0.45; viability z-score without drug -0.34; inactive.
Silencing of Spink12 [SID152316547] came out at: combined z-score class no change with or without drug; viability z-score with doxorubicin -0.45; viability z-score without drug 0; inactive.
Or4f6 [SID152342797] gave combined z-score class no change with or without drug; viability z-score with doxorubicin -0.45; viability z-score without drug -1.35; inactive.
With knock-down of Pdik1l [SID152276883], the screen gave combined z-score class no change with or without drug; viability z-score with doxorubicin 0.45; viability z-score without drug -0.34; inactive.
After knock-down of Pi4kb [SID152264284] the results were combined z-score class no change with or without drug; viability z-score with doxorubicin -1.12; viability z-score without drug -1.18; inactive.
